{"source": "PubChem BioAssay AID1259260 (Sanger Institute, 2017)", "screen": "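Kinases whose knock-down kills colorectal cancer cells or boosts drug effects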 (primary screen)", "cells": "human NCI-H716 colorectal cancer cells", "reagent": "siRNA pool against human genes", "conditions": "anchor drugs BYL719 (alpelisib) 1 µM, cetuximab 5 µg/ml or trametinib 10 nM, each at a dose chosen to harm viability only mildly; DMSO vehicle for the knock-down-alone arm", "detection": "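Mean viability over replicates against non-targeting siRNA, robust z-score without drug, and per-drug synergy comparing combined with single treatments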", "direction": "viability robust z-score, siRNA alone: higher = more surviving cells; below -3 called essential; viability vs control, no drug: higher = more surviving cells", "hit rule": "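Essential when the robust z-score for knock-down alone falls below -3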", "meaning of the calls": "active = essential (knock-down alone lowers viability); inactive = no essential effect", "note": "Shown is one part, drawn at random, of 794 reagents tested. Over the whole deposit, 13 (1.6%) got an active call. 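Calls reflect only knock-down without drug; synergy above 0.15 was grouped apart and does not change the call.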 A number with no mark means an inactive call. Viability is capped at 1. Not all columns of the deposit are shown. Not given: the amount of reagent, the time to read-out."}
{"gene": "PAK5", "viability robust z-score, siRNA alone": -0.631, "viability vs control, no drug (fraction of control)": 0.872}
{"gene": "LRRK2", "viability robust z-score, siRNA alone": 0.602, "viability vs control, no drug (fraction of control)": 1}
{"gene": "EPHB4", "viability robust z-score, siRNA alone": 0.2, "viability vs control, no drug (fraction of control)": 0.958}
{"gene": "FGFR2", "viability robust z-score, siRNA alone": "-4.31 (active)", "viability vs control, no drug (fraction of control)": 0.489}
{"gene": "SMC1A", "viability robust z-score, siRNA alone": 0.538, "viability vs control, no drug (fraction of control)": 0.993}
{"gene": "DYRK2", "viability robust z-score, siRNA alone": 0.602, "viability vs control, no drug (fraction of control)": 1}
{"gene": "CKM", "viability robust z-score, siRNA alone": -1.68, "viability vs control, no drug (fraction of control)": 0.763}
{"gene": "CDK8", "viability robust z-score, siRNA alone": 0.602, "viability vs control, no drug (fraction of control)": 1}
{"gene": "TRIB2", "viability robust z-score, siRNA alone": -1.38, "viability vs control, no drug (fraction of control)": 0.794}
{"gene": "LCK", "viability robust z-score, siRNA alone": -0.374, "viability vs control, no drug (fraction of control)": 0.899}
{"gene": "EIF2AK2", "viability robust z-score, siRNA alone": -0.123, "viability vs control, no drug (fraction of control)": 0.925}
{"gene": "TCF7L2", "viability robust z-score, siRNA alone": 0.602, "viability vs control, no drug (fraction of control)": 1}

Copied from the list.
LRRK2, viability robust z-score, siRNA alone: 0.602
EPHB4, viability robust z-score, siRNA alone: 0.2
DYRK2, viability vs control, no drug (fraction of control) → 1

Additional records follow.
{"gene": "RIPK3", "viability robust z-score, siRNA alone": 0.602, "viability vs control, no drug (fraction of control)": 1}
{"gene": "TSSK6", "viability robust z-score, siRNA alone": -1.13, "viability vs control, no drug (fraction of control)": 0.82}
{"gene": "TAOK2", "viability robust z-score, siRNA alone": 0.602, "viability vs control, no drug (fraction of control)": 1}
{"gene": "PI4KB", "viability robust z-score, siRNA alone": 0.424, "viability vs control, no drug (fraction of control)": 0.981}
{"gene": "DLG1", "viability robust z-score, siRNA alone": -1.2, "viability vs control, no drug (fraction of control)": 0.812}
{"gene": "CAMK4", "viability robust z-score, siRNA alone": 0.602, "viability vs control, no drug (fraction of control)": 1}
{"gene": "ARAF", "viability robust z-score, siRNA alone": -1.56, "viability vs control, no drug (fraction of control)": 0.775}
{"gene": "MAP2K1", "viability robust z-score, siRNA alone": 0.566, "viability vs control, no drug (fraction of control)": 0.996}
{"gene": "CHEK2", "viability robust z-score, siRNA alone": 0.602, "viability vs control, no drug (fraction of control)": 1}
{"gene": "IP6K3", "viability robust z-score, siRNA alone": 0.113, "viability vs control, no drug (fraction of control)": 0.949}
{"gene": "STK10", "viability robust z-score, siRNA alone": 0.602, "viability vs control, no drug (fraction of control)": 1}
{"gene": "PCBP1", "viability robust z-score, siRNA alone": 0.602, "viability vs control, no drug (fraction of control)": 1}
{"gene": "PRKCSH", "viability robust z-score, siRNA alone": -0.219, "viability vs control, no drug (fraction of control)": 0.915}
{"gene": "DDR2", "viability robust z-score, siRNA alone": 0.602, "viability vs control, no drug (fraction of control)": 1}
{"gene": "MAPK14", "viability robust z-score, siRNA alone": -0.744, "viability vs control, no drug (fraction of control)": 0.86}
{"gene": "GRK2", "viability robust z-score, siRNA alone": 0.602, "viability vs control, no drug (fraction of control)": 1}
